This is an account of results in paper PMC4373798.

Amino acid sequences for entries named in this document (tags omitted).
UniProt P26231: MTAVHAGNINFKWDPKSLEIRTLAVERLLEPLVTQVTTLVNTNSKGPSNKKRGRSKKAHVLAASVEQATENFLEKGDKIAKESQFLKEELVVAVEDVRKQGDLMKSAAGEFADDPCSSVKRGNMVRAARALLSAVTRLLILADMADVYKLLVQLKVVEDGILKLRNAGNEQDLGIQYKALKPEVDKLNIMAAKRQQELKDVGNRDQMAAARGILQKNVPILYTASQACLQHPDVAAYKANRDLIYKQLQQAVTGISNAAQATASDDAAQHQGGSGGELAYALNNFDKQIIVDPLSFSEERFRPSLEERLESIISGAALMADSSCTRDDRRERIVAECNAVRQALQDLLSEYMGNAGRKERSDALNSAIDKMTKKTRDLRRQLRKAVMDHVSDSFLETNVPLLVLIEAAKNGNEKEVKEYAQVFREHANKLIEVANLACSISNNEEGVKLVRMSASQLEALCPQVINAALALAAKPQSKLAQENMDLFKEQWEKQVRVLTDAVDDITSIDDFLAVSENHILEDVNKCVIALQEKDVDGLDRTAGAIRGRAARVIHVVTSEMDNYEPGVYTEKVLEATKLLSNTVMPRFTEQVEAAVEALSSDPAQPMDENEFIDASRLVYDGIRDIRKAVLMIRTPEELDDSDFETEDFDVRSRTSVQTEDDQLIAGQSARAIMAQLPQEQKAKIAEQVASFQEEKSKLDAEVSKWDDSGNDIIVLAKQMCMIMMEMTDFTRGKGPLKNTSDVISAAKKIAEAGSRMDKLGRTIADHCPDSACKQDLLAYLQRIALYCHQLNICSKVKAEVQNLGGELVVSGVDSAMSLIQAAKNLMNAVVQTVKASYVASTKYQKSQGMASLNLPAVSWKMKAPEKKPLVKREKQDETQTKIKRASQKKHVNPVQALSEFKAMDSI

Results are given in words; binding and its absence hold for the method and conditions named. Binding seen in cells or lysates may run through a third protein.

This assay deals with GFP-tagged BirA*-α-catenin (GFP-BirA*-α-catenin fusion with epithelia-specific α-catenin) (UniProt P26231). The experiment in a line: co-IP; lysates of BirA*-α-catenin MDCK cells from stretch chambers; GFP or E-cadherin antibody cross-linked to Protein A magnetic beads; 0.1% SDS wash; Western blot with antibodies or streptavidin-HRP. Background: Immunoblotting shows a protein as a band on a membrane.

B1: β-catenin (protein, UniProt B6V8E6 1-781)
chain: MATQADLMELDMAMEPDRKAAVSHWQQQSYLDSGIHSGATTTAPSLSGKGNPEEEDVDTTQVLYEWEQGFSQSFTQEQVADIDGQYAMTRAQRVRAAMFPETLDEGMQIPSTQFDAAHPTNVQRLAEPSQMLKHAVVNLINYQDDAELATRAIPELTKLLNDEDQVVVNKAAVMVHQLSKKEASRHAIMRSPQMVSAIVRTMQNTNDVETARCTAGTLHNLSHHREGLLAIFKSGGIPALVKMLGSPVDSVLFYAITTLHNLLLHQEGAKMAVRLAGGLQKMVALLNKTNVKFLAITTDCLQILAYGNQESKLIILASGGPQALVNIMRTYTYEKLLWTTSRVLKVLSVCSSNKPAIVEAGGMQALGLHLTDPSQRLVQNCLWTLRNLSDAATKQEGMEGLLGTLVQLLGSDDINVVTCAAGILSNLTCNNYKNKMMVCQVGGIEALVRTVLRAGDREDITEPAICALRHLTSRHQEAEMAQNAVRLHYGLPVVVKLLHPPSHWPLIKATVGLIRNLALCPANHAPLREQGAIPRLVQLLVRAHQDTQRRTSMGGTQQQFVEGVRMEEIVEGCTGALHILARDVHNRIVIRGLNTIPLFVQLLYSPIENIQRVAAGVLCELAQDKEAAEAIEAEGATAPLTELLHSRNEGVATYAAAVLFRMSEDKPQDYKKRLSVELTSSLFRTEPMAWNETADLGLDIGAQGEPLGYRQDDPSYRSFHSGGYGQDALGMDPMMEHEMGGHHPGADYPVDGLPDLGHAQDLMDGLPPGDSNQLAWFDTDL
Consider B1, for which the binding entry is “no binding (condition: with 0.1% SDS wash)”.
